# Reference: the supplement of paper PMC8728848
# The list shows a part of the results.
# B1: PX9961W-pdi-543-27-543 (Parabacteroides distasonis) (protein)
# chain: EGNATTTSYFLNDQQAIDAIDGLYERFHQEGCYGRELFWEQGAACDIVWGRTRGYNSLATLAYTGDESPLRDVFSRMYSTMSRANWIIQELVKKEKGTTLTAVEKRSLGEAYFSRGWAHYLIAYRYGTDKQGVPFVRYEDFPDDYDNSIPPQQATVMDNYKLIIEDMDKAIAYLPIFESYDADNRGRAHQAAAVAFKAKTYAYWATWDATQWNNVIEMVNQLENNYNRDLAPTFAELFSSDLKDYWNAEYLWTIPSIGGALPGGTEFPGIILENKGWGKYNGWGQMKPSYDIYEEMAKDGKGNDRLVRSILEYNQEFPFFGETRKFWSTSDLEAGFMINKYMDAFKYSDPVGEGAVSANGDWPTVRVNFPIIRFAEMLLFRAEAYLMTGQADKATADINRIRLRSNLTPLTGTATMKDLYHERRCELAFEFTDHLFDLKRWNRSSNADIKTLADKELNAHPRIRRYEDRANPESAFTIIGYEDYTNKNAYQAHMMVFPYPSEEITKSNGQLKQNEGY
# How the values were obtained:
# Test in all cases: glycan array binding signal (z-score within array); higher = stronger binding
# Details in all cases: glycan notation: IUPAC condensed, linker removed
# [1] = target: Fuc(a1-2)Gal(b1-4)GlcNAc(b1-3)Gal(b1-4)GlcNAc(b1-3)Gal(b1-4)GlcNAc
# Outline: (§1)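 From the Consortium for Functional Glycomics database, 3228 arrays were curated, keeping only those whose protein sequence was available. Binding is given as a within-array Z-score averaged across arrays sharing a protein sequence and across linkers. Negative Z-scores can be read as non-binding.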
# [2] = target: Fuc(a1-2)Gal(b1-4)GlcNAc(b1-3)GalNAc
# Outline: as §1
# [3] = target: Fuc(a1-2)Gal(b1-4)GlcNAc(b1-3)[Fuc(a1-2)Gal(b1-4)GlcNAc(b1-6)]GalNAc
# Outline: as §1
# [4] = target: Fuc(a1-2)Gal(b1-4)GlcNAc(b1-3)[Fuc(a1-3)[Gal(b1-4)]GlcNAc(b1-6)]Gal(b1-4)Glc
# Outline: as §1
# [5] = target: Fuc(a1-2)Gal(b1-4)GlcNAc(b1-6)GalNAc
# Outline: as §1
# [6] = target: Fuc(a1-2)Gal(b1-4)GlcNAc6S
# Outline: as §1
# [7] = target: Fuc(a1-2)Gal(b1-4)[Fuc(a1-3)]GlcNAc
# Outline: as §1
# [8] = target: Fuc(a1-2)Gal(b1-4)[Fuc(a1-3)]GlcNAc(b1-2)Man(a1-3)[Fuc(a1-2)Gal(b1-4)[Fuc(a1-3)]GlcNAc(b1-2)Man(a1-6)]Man(b1-4)GlcNAc(b1-4)[Fuc(a1-6)]GlcNAc
# Outline: as §1
# [9] = target: Fuc(a1-2)Gal(b1-4)[Fuc(a1-3)]GlcNAc(b1-2)[Fuc(a1-2)Gal(b1-4)[Fuc(a1-3)]GlcNAc(b1-4)]Man(a1-3)[Fuc(a1-2)Gal(b1-4)[Fuc(a1-3)]GlcNAc(b1-2)Man(a1-6)]Man(b1-4)GlcNAc(b1-4)GlcNAc
# Outline: as §1
# [10] = target: Fuc(a1-2)Gal(b1-4)[Fuc(a1-3)]GlcNAc(b1-3)Gal(b1-4)[Fuc(a1-3)]GlcNAc
# Outline: as §1
# [11] = target: Fuc(a1-2)Gal(b1-4)[Fuc(a1-3)]GlcNAc(b1-3)Gal(b1-4)[Fuc(a1-3)]GlcNAc(b1-3)Gal(b1-4)[Fuc(a1-3)]GlcNAc
# Outline: as §1
# [12] = target: Fuc(a1-2)Gal(b1-4)[Fuc(a1-3)]GlcNAc(b1-3)GalNAc
# Outline: as §1
# [13] = target: Fuc(a1-2)Gal(b1-4)[Fuc(a1-3)]GlcNAc(b1-3)[Neu5Ac(a2-6)Gal(b1-4)GlcNAc(b1-6)]Gal(b1-4)Glc
# Outline: as §1
# [14] = target: Fuc(a1-2)Gal3S(b1-4)GlcNAc
# Outline: as §1
# [15] = target: Fuc(a1-2)Gal6S(b1-3)GlcNAc
# Outline: as §1
# [16] = target: Fuc(a1-2)Gal6S(b1-3)GlcNAc6S
# Outline: as §1
# Fuc(a1-2)Gal6S(b1-4)Glc = target: Fuc(a1-2)Gal6S(b1-4)Glc
# Outline: as §1
# [17] = target: Fuc(a1-2)Gal6S(b1-4)Glc6S
# Outline: as §1
# Fuc(a1-2)[Gal(a1-3)]Gal = target: Fuc(a1-2)[Gal(a1-3)]Gal
# Outline: as §1
# [18] = target: Fuc(a1-2)[Gal(a1-3)]Gal(b1-3)GalNAc
# Outline: as §1
# [19] = target: Fuc(a1-2)[Gal(a1-3)]Gal(b1-3)GalNAc(b1-3)Gal(a1-4)Gal(b1-4)Glc
# Outline: as §1
# [20] = target: Fuc(a1-2)[Gal(a1-3)]Gal(b1-3)GlcNAc
# Outline: as §1
# [21] = target: Fuc(a1-2)[Gal(a1-3)]Gal(b1-3)GlcNAc(b1-2)Man(a1-3)[Fuc(a1-2)[Gal(a1-3)]Gal(b1-3)GlcNAc(b1-2)Man(a1-6)]Man(b1-4)GlcNAc(b1-4)GlcNAc
# Outline: as §1
# [22] = target: Fuc(a1-2)[Gal(a1-3)]Gal(b1-3)GlcNAc(b1-2)Man(a1-3)[Fuc(a1-2)[Gal(a1-3)]Gal(b1-3)GlcNAc(b1-2)Man(a1-6)]Man(b1-4)GlcNAc(b1-4)[Fuc(a1-6)]GlcNAc
# Outline: as §1
# [23] = target: Fuc(a1-2)[Gal(a1-3)]Gal(b1-3)GlcNAc(b1-3)GalNAc
# Outline: as §1
# [24] = target: Fuc(a1-2)[Gal(a1-3)]Gal(b1-3)GlcNAc(b1-6)GalNAc
# Outline: as §1
# [25] = target: Fuc(a1-2)[Gal(a1-3)]Gal(b1-4)Glc
# Outline: as §1
# [26] = target: Fuc(a1-2)[Gal(a1-3)]Gal(b1-4)GlcNAc
# Outline: as §1
# [27] = target: Fuc(a1-2)[Gal(a1-3)]Gal(b1-4)GlcNAc(b1-2)Man
# Outline: as §1
# [28] = target: Fuc(a1-2)[Gal(a1-3)]Gal(b1-4)GlcNAc(b1-2)Man(a1-3)[Fuc(a1-2)[Gal(a1-3)]Gal(b1-4)GlcNAc(b1-2)Man(a1-6)]Man(b1-4)GlcNAc(b1-4)GlcNAc
# Outline: as §1
binder,measurement,setting,value
B1,glycan array binding signal (z-score),[1],-1.31
same,glycan array binding signal (z-score),[2],0.382
same,glycan array binding signal (z-score),[3],-1
same,glycan array binding signal (z-score),[4],-0.163
same,glycan array binding signal (z-score),[5],-0.257
same,glycan array binding signal (z-score),[6],-0.554
same,glycan array binding signal (z-score),[7],-0.287
same,glycan array binding signal (z-score),[8],1.66
same,glycan array binding signal (z-score),[9],0.295
same,glycan array binding signal (z-score),[10],0.041
same,glycan array binding signal (z-score),[11],0.317
same,glycan array binding signal (z-score),[12],0.942
same,glycan array binding signal (z-score),[13],-0.745
same,glycan array binding signal (z-score),[14],-1
same,glycan array binding signal (z-score),[15],-0.032
same,glycan array binding signal (z-score),[16],1.04
same,glycan array binding signal (z-score),Fuc(a1-2)Gal6S(b1-4)Glc,-0.779
same,glycan array binding signal (z-score),[17],-0.138
same,glycan array binding signal (z-score),Fuc(a1-2)[Gal(a1-3)]Gal,0.005
same,glycan array binding signal (z-score),[18],-1.22
same,glycan array binding signal (z-score),[19],-0.488
same,glycan array binding signal (z-score),[20],-0.146
same,glycan array binding signal (z-score),[21],-0.55
same,glycan array binding signal (z-score),[22],-0.897
same,glycan array binding signal (z-score),[23],-0.199
same,glycan array binding signal (z-score),[24],0.085
same,glycan array binding signal (z-score),[25],0.924
same,glycan array binding signal (z-score),[26],-0.405
same,glycan array binding signal (z-score),[27],-0.316
same,glycan array binding signal (z-score),[28],-0.929

# Two entries picked at random from the list so far:
binder,measurement,setting,value
B1,glycan array binding signal (z-score),[28],-0.929
same,glycan array binding signal (z-score),[2],0.382
